According to PMC11997217, “Inactivation of GH3.5 by COP1-mediated K63-linked ubiquitination promotes seedling hypocotyl elongation” (Nature Communications, 2025):

Target: T1, YFP-COP1 (Arabidopsis) (UniProt P43254)
T1 sequence: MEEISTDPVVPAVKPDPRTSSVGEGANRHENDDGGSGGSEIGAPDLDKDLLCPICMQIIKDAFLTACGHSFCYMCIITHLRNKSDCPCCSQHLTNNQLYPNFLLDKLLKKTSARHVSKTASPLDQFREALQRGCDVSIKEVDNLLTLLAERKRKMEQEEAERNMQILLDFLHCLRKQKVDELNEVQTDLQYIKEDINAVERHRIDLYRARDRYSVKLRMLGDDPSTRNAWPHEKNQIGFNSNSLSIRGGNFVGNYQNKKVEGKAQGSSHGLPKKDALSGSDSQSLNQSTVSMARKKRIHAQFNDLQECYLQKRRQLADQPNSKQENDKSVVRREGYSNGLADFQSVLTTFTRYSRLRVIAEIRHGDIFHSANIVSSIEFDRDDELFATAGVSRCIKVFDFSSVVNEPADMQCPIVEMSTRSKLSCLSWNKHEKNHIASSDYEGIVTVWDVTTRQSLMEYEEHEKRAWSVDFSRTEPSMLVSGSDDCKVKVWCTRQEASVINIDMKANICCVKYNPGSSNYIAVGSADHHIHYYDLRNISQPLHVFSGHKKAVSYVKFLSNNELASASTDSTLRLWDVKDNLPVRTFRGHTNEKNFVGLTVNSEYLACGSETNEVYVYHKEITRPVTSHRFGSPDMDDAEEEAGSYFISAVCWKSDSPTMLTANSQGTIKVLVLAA
Assay: affinity purification with mass spectrometry; GFP-Trap beads (ChromoTek) on YFP-COP1 transgenic plants, IP-MS; hits also had to be found in a K63 TUBE capture dependent on COP1

B1: GH3.6 (enzyme, UniProt Q9LSQ4 1-612)
chain: MPEAPKIAALEVSDESLAEKNKNKLQFIEDVTTNADDVQRRVLEEILSRNADVEYLKRHGLEGRTDRETFKHIMPVVTYEDIQPEINRIANGDKSQVLCSNPISEFLTSSGTSGGERKLMPTIEEELDRRSLLYSLLMPVMDQFVPGLDKGKGMYFLFIKSESKTPGGLPARPVLTSYYKSSHFKNRPYDPYTNYTSPNQTILCSDSYQSMYSQMLCGLCQHKEVLRVGAVFASGFIRAIKFLEKHWPELARDIRTGTLSSEITDSSVREAVGEILKPDPKLADFVESECRKTSWQGIITRLWPNTKYVDVIVTGTMSQYIPTLDYYSNGLPLVCTMYASSECYFGVNLRPLCKPSEVSYTLIPNMAYFEFLPVHRNSGVTSSISLPKALTEKEQQELVDLVDVKLGQEYELVVTTYAGLYRYRVGDVLSVAGFKNNAPQFSFICRKNVVLSIDSDKTDEVELQNAVKNAVTHLVPFDASLSEYTSYADTSSIPGHYVLFWELCLNGNTPIPPSVFEDCCLTIEESLNSVYRQGRVSDKSIGPLEIKMVESGTFDKLMDYAISLGASINQYKTPRCVKFAPIIELLNSRVVDSYFSPKCPKWSPGHKQWGSN
**Q.** B1 was tested. Which binding did it give?
**A.** The binding was “binds”.

No constants are given. Whether binding was seen depends on the method and setting. Binding seen in cells or lysates may run through a third protein. Here binding means that the protein was enriched with, or labelled near, the bait; the list need not be complete. Tags and fused reporters may be left off the sequences shown.
